## Library screen at single concentrations

Protein sequences, listed by entry. Tags and fused reporters are not part of them. Residues count along the entry.
UniProt Q8IDJ8, 1-583: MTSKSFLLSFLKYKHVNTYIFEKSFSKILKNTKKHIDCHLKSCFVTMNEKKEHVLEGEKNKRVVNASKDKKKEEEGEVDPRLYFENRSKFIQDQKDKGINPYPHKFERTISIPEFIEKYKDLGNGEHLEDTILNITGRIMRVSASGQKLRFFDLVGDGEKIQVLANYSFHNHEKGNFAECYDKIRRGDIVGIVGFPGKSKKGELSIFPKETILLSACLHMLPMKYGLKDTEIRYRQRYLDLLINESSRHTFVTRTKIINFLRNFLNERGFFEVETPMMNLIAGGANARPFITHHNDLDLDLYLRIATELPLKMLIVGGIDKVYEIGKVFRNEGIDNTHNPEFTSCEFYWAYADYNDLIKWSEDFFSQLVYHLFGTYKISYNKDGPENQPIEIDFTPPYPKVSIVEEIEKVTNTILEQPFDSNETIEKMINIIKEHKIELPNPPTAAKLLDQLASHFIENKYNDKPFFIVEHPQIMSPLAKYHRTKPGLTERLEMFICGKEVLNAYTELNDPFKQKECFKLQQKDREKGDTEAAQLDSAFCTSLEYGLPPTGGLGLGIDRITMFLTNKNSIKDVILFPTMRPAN
UniProt P9WFT3, whole entry: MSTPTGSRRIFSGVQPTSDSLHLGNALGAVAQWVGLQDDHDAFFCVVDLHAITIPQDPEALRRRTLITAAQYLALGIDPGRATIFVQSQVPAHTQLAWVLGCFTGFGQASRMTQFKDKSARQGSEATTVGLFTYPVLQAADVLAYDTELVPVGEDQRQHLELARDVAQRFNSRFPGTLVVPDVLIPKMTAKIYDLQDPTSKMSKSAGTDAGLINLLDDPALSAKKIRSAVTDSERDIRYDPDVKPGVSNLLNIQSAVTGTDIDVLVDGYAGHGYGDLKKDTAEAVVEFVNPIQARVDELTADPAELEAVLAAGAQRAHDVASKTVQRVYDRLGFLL
UniProt P9WPC5, whole entry: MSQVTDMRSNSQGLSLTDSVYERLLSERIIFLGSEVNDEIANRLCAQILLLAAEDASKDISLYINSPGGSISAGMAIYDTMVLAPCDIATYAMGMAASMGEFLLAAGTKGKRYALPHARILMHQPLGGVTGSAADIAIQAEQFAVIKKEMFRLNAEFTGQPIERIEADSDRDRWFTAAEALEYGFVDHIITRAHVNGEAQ
UniProt P9WPC3, whole entry partner: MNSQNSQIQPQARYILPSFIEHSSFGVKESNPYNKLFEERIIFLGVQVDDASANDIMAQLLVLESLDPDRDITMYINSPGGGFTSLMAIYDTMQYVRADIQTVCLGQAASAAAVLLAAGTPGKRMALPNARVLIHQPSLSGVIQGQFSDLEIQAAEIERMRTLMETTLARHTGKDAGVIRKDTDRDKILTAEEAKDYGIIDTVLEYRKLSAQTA

Data taken from ChEMBL document CHEMBL3988442, “University of Dundee, Small-Polar-MMV Screening Library” (2021).

A: 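Lysine-tRNA ligase, Plasmodium falciparum 3D7 (UniProt Q8IDJ8). Enzyme assay of the cytosolic lysyl-tRNA synthetase in 384-well plates, read by luminescence. Compounds at 30 µM. Direction is inferred from only a few compounds that gave an IC50; most scored high, so higher reads as stronger inhibition. Size under these conditions: about 69,000 compounds, about 49 of them at 50% or above in at least one test.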
B: 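Enzyme assay of tryptophanyl-tRNA synthetase; the read-out is not stated. Target: Tryptophan-tRNA ligase, Mycobacterium tuberculosis (UniProt P9WFT3). Tested at 10 µM. Higher most likely means stronger inhibition; the record gives no direction and few retests gave an IC50. Size under these conditions: about 65,000 compounds, about 64 of them at 50% or above in at least one test.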
C: 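ClpP1P2, Mycobacterium tuberculosis (UniProt P9WPC5 and UniProt P9WPC3). Protease assay of ClpP1P2, read by the AMC dye that it sets free. Compounds at 50 µM. Direction is inferred from only a few compounds that gave an IC50; most scored high, so higher reads as stronger inhibition. Most other retested compounds had strongly negative values. Size under these conditions: about 69,000 compounds, about 10 of them at 50% or above in at least one test.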

The filed quantity is “Percent Effect” (%).
How 0% and 100% were set is not recorded. Most values in the screen are low, and negative values occur.
Compounds were drawn at random from those tested, without regard to their results.
A dash means the value is not listed here; it may have been measured.

| # | Compound | A | B | C |
|---|---|---|---|---|
| 1 | `CC(C)N(C)C(=O)c1coc(CN2CCN(c3ccccc3F)CC2)n1` | 0.392 | -3.052 | -14.54 |
| 2 | `CCOC(=O)NC(CNC(=O)c1ccccn1)CC(C)C` (stereo not shown) | -1.1 | -3.521 | 5.205 |
| 3 | `CC(C)c1cc(C(=O)N2CCC3(CCc4ccccc4C(=O)N3)C2)no1` (stereo not shown) | 0.8542 | -0.3906 | -7.088 |
| 4 | `NC(=O)C1(CCCc2ccccn2)CCCN(CCO)C1` (stereo not shown) | 2.821 | - | 0.3411 |
| 5 | `CC(C1CCN(Cc2c(Cl)cncc2Cl)CC1)N1CCN(C)CC1` (stereo not shown) | 1.24 | 8.779 | -21.56 |
| 6 | `COc1ccc(C2OC(COc3ccc(C)cc3)=NN2C(C)=O)cc1` (stereo not shown) | 3.058 | 3.522 | 5.904 |
| 7 | `Cc1nnc(C2CCN(c3ccccc3)CC2)o1` | -0.6723 | 0.4342 | -0.9982 |
| 8 | `Cc1cc2[nH]c(=O)oc2cc1S(=O)(=O)N1CCCC(N(C)C)CC1` (stereo not shown) | 8.328 | -0.6101 | -3.551 |
| 9 | `Cc1nn(C)c(N(C)C)c1CNCc1ccc(Cn2cccn2)cc1` | 8.843 | 2.023 | 12.81 |
| 10 | `COCC(=O)N1CCN(C)C(=O)C(Cc2ccc(-c3cccs3)cc2)C1` (stereo not shown) | 1.068 | 3.045 | -16.97 |
| 11 | `O=C(c1ccccn1)N1CCC(c2nccn2Cc2ccncc2)CC1` | -0.7231 | 2.391 | 1.907 |
| 12 | `CCc1c(C)sc2c1c(N)nc(=O)n2CCCN(C)C` | 3.348 | 3.155 | -0.8068 |
| 13 | `CCn1cnnc1CNC(=O)N(C)Cc1ccc(Cl)cc1Cl` | 4.729 | 6.62 | -5.669 |
| 14 | `CNc1nc2c(s1)C(c1c(Cl)cccc1Cl)CC(=O)N2` (stereo not shown) | 35.25 | 8.792 | -13.16 |
| 15 | `CC(c1nc(C(C)(C)C)no1)N1CCN(c2ccc(C#N)cn2)CC1` (stereo not shown) | -0.5253 | 1.357 | 11.21 |
| 16 | `CCCc1nc(C(C)(C)NC(=O)C2CC(=O)N(C3CC3)C2)no1` (stereo not shown) | 1.687 | -5.726 | -10.7 |
| 17 | `CN(C)c1ncc(-c2cc(C(=O)N3CCCC3)n(CC3CC3)c2)cn1` | -0.6421 | -1.527 | -58.78 |
| 18 | `O=C1CCCN1CCc1noc(-c2ccc3[nH]cnc3c2)n1` | 3.251 | 0.1874 | 4.165 |
| 19 | `Cc1ccc(CC(=O)N2CCCC(c3nc(C)cs3)C2)cn1` (stereo not shown) | -0.5979 | -3.596 | 6.549 |
| 20 | `COc1ccccc1-n1nc(CC(C)C)nc1Cc1nnc(N)s1` | 3.027 | -0.9397 | -10.06 |
| 21 | `CN1CCc2c(C#N)c(NCCCO)n3cnnc3c2C1` | 2.664 | -0.3408 | -20.67 |

Some entries from above, unchanged:

{"compound": "Cc1ccc(CC(=O)N2CCCC(c3nc(C)cs3)C2)cn1", "stereo": "stereo not shown", "A": -0.5979, "B": -3.596, "C": 6.549}
{"compound": "CC(C)N(C)C(=O)c1coc(CN2CCN(c3ccccc3F)CC2)n1", "A": 0.392, "B": -3.052, "C": -14.54}